Experimental data taken from paper doi:10.1101/2022.03.07.483362.
Results are given in words; binding and its absence hold for the method and conditions named. Binding seen in cells or lysates may run through a third protein. Here binding means that the protein was enriched with, or labelled near, the bait; the list need not be complete. Blank lines part the entries; values can stand above or below the binder they belong to.

Target: AtRsmD-GFP fusion protein (p35S:AtRsmD-GFP) in Arabidopsis seedlings (Arabidopsis thaliana)
Test: affinity purification with mass spectrometry

- binding: binds
B1: 30S ribosomal protein S20 (RPS20), endogenous (protein, UniProt Q9ASV6 80-202)
chain: AAAPTKKADSAAKRARQAEKRRVYNKSKKSEARTRMKKVLEALEGLKKKTDAQADEIVTVEKLIGEAYSAIDKAVKVKALHKNTGARRKSRLARRKKAVEIHHGWYVPDAAAAAPSEAVPMAA

- binding: binds
B2: RPS13 (nuclear-encoded), endogenous (protein, UniProt P42732 48-169)
chain: ARVGGVEIPANKRIEYSLQYIHGIGRTRARQILVDLQMENKITKDMAEEELIILRDEVSKYMIEGDLRRFNALAIKRLKEIQCYRGVRHIQGLPCRGQRTKNNCRTLKGKKIAIAGKKKVSK
